{"source": "PubChem BioAssay AID686943 (Drosophila RNAi Screening Center, 2013)", "aim": "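Search across the genome for regulators of signalling from receptor tyrosine kinase to ERK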 (primary screen)", "cells": "Drosophila S2R+ haemocyte-like cells expressing YFP-tagged ERK (Rolled)", "reagents": "long dsRNA against Drosophila genes", "conditions": "insulin stimulation versus unstimulated cells; dose and duration not given", "measurement": "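Per-plate z-scores of phospho-ERK immunostaining normalised to YFP-tagged ERK, measured with and without insulin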", "scale": "replicate 1, z-score of dpERK with insulin: higher = more active ERK per ERK-YFP after insulin", "note": "In all, the deposit lists about 23,000 reagents; below is an unselected part of those that have a named target and a result. 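Extra replicates exist only for a retested subset of genes; insulin dose and duration not given; both raised and lowered dpERK matter.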 The numbers tell different reagents against one gene apart. Names joined by + are all predicted targets of the reagent. Further read-outs or replicates are left out here. No sequences are given here. Not stated in the record: the amount of reagent, the time to read-out."}
{"gene": "sordd2 + sordd1", "reagent no.": 1, "replicate 1, z-score of dpERK with insulin": 0.33}
{"gene": "vls", "reagent no.": 1, "replicate 1, z-score of dpERK with insulin": -0.75}
{"gene": "ort", "reagent no.": 1, "replicate 1, z-score of dpERK with insulin": 0.59}
{"gene": "CG31815", "reagent no.": 1, "replicate 1, z-score of dpERK with insulin": -0.05}
{"gene": "CG8726", "reagent no.": 1, "replicate 1, z-score of dpERK with insulin": 1.13}
{"gene": "CG15200", "reagent no.": 1, "replicate 1, z-score of dpERK with insulin": -0.26}
{"gene": "CG31740", "reagent no.": 1, "replicate 1, z-score of dpERK with insulin": -0.48}
{"gene": "CG10984", "reagent no.": 1, "replicate 1, z-score of dpERK with insulin": 1.76}
{"gene": "CG5742", "reagent no.": 1, "replicate 1, z-score of dpERK with insulin": -0.14}
{"gene": "Vta1", "reagent no.": 1, "replicate 1, z-score of dpERK with insulin": 0.77}
{"gene": "Vta1", "reagent no.": 2, "replicate 1, z-score of dpERK with insulin": 0.03}
{"gene": "CG17721", "reagent no.": 1, "replicate 1, z-score of dpERK with insulin": 0.41}
{"gene": "Acadvl", "reagent no.": 1, "replicate 1, z-score of dpERK with insulin": 0.31}
{"gene": "CG10919", "reagent no.": 1, "replicate 1, z-score of dpERK with insulin": 0.13}
{"gene": "CG3014", "reagent no.": 1, "replicate 1, z-score of dpERK with insulin": -0.02}
{"gene": "CG9184", "reagent no.": 1, "replicate 1, z-score of dpERK with insulin": 0.47}
{"gene": "CG9184", "reagent no.": 2, "replicate 1, z-score of dpERK with insulin": 0.04}
{"gene": "Rbcn-3A", "reagent no.": 1, "replicate 1, z-score of dpERK with insulin": 0.98}
{"gene": "cGlr1", "reagent no.": 1, "replicate 1, z-score of dpERK with insulin": 0.34}
{"gene": "Zn72D", "reagent no.": 1, "replicate 1, z-score of dpERK with insulin": 0.8}
{"gene": "CG34203", "reagent no.": 1, "replicate 1, z-score of dpERK with insulin": 0.15}
{"gene": "CG31205", "reagent no.": 1, "replicate 1, z-score of dpERK with insulin": -0.37}
{"gene": "Or45b", "reagent no.": 1, "replicate 1, z-score of dpERK with insulin": 0.65}
{"gene": "CG31546", "reagent no.": 1, "replicate 1, z-score of dpERK with insulin": -0.06}
{"gene": "mRpL10", "reagent no.": 1, "replicate 1, z-score of dpERK with insulin": 0.01}
{"gene": "Fer2", "reagent no.": 1, "replicate 1, z-score of dpERK with insulin": 0.16}
{"gene": "E(spl)m8-HLH", "reagent no.": 1, "replicate 1, z-score of dpERK with insulin": 0.03}
{"gene": "Gas8", "reagent no.": 1, "replicate 1, z-score of dpERK with insulin": -0.58}
{"gene": "CG6928", "reagent no.": 1, "replicate 1, z-score of dpERK with insulin": 1.56}
{"gene": "Setx", "reagent no.": 1, "replicate 1, z-score of dpERK with insulin": 0.36}
{"gene": "Jhbp13", "reagent no.": 1, "replicate 1, z-score of dpERK with insulin": 0.11}
